Experimental data as given in the supplement of paper PMC11732987, “Enantioselective OTUD7B fragment discovery through chemoproteomics screening and high-throughput optimisation” (Communications Chemistry, 2025).
The list shows a part of the results. The data scatter; read single values as rough.

Sequences of proteins named here, by UniProt entry; tags and fusion partners are left off. A change or cut given only in a name is not applied to a line headed by its entry. Residues count along the entry.
UniProt Q6ZWJ1: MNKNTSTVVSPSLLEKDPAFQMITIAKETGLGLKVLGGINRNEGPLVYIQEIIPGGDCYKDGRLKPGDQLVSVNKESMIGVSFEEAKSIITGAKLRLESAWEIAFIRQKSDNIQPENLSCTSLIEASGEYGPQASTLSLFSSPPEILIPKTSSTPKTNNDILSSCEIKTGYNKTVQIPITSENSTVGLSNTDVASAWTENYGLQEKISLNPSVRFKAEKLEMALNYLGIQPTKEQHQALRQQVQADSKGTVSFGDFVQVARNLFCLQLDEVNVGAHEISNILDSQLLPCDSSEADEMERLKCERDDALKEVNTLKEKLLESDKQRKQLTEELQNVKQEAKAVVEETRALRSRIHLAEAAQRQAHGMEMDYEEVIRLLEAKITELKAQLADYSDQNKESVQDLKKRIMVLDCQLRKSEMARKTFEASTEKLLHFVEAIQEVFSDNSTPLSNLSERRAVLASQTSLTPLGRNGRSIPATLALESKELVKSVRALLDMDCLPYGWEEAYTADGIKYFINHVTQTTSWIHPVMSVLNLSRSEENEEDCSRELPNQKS
UniProt O43609: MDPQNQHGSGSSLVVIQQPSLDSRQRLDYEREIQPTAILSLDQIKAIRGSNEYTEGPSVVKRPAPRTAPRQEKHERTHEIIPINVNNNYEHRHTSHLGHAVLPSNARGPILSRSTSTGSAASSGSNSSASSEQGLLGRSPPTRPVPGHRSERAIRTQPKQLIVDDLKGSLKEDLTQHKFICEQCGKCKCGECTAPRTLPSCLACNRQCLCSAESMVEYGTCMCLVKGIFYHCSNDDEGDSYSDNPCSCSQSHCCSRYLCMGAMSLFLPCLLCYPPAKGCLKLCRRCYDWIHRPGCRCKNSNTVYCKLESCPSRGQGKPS
UniProt P19623, 114-135: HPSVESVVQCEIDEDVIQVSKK
UniProt Q8N5C6: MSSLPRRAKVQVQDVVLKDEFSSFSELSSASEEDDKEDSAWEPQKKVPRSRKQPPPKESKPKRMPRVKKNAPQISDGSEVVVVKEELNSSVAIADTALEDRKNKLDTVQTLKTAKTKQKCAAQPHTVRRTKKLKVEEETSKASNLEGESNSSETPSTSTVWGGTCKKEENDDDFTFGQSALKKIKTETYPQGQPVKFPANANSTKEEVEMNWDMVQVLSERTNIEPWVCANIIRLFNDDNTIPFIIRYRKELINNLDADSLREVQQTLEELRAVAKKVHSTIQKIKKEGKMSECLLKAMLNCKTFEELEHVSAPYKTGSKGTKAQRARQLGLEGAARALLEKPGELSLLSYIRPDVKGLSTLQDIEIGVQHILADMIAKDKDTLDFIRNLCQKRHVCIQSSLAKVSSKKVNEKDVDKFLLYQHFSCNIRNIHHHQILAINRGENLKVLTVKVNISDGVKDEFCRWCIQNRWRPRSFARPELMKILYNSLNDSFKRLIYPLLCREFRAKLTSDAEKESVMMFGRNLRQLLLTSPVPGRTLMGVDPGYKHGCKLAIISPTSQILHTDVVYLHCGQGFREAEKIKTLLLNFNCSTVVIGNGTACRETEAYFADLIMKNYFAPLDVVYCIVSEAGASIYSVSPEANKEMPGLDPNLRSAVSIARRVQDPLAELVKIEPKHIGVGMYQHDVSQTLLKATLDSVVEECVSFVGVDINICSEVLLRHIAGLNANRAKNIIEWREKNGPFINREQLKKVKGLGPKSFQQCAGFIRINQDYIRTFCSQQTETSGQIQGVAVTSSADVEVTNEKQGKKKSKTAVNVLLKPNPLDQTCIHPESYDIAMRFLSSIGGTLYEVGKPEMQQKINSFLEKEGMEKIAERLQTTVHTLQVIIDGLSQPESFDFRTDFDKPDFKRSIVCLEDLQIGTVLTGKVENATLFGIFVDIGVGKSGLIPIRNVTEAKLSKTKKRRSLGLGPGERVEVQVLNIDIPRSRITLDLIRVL
UniProt Q96T58, whole entry, looked up: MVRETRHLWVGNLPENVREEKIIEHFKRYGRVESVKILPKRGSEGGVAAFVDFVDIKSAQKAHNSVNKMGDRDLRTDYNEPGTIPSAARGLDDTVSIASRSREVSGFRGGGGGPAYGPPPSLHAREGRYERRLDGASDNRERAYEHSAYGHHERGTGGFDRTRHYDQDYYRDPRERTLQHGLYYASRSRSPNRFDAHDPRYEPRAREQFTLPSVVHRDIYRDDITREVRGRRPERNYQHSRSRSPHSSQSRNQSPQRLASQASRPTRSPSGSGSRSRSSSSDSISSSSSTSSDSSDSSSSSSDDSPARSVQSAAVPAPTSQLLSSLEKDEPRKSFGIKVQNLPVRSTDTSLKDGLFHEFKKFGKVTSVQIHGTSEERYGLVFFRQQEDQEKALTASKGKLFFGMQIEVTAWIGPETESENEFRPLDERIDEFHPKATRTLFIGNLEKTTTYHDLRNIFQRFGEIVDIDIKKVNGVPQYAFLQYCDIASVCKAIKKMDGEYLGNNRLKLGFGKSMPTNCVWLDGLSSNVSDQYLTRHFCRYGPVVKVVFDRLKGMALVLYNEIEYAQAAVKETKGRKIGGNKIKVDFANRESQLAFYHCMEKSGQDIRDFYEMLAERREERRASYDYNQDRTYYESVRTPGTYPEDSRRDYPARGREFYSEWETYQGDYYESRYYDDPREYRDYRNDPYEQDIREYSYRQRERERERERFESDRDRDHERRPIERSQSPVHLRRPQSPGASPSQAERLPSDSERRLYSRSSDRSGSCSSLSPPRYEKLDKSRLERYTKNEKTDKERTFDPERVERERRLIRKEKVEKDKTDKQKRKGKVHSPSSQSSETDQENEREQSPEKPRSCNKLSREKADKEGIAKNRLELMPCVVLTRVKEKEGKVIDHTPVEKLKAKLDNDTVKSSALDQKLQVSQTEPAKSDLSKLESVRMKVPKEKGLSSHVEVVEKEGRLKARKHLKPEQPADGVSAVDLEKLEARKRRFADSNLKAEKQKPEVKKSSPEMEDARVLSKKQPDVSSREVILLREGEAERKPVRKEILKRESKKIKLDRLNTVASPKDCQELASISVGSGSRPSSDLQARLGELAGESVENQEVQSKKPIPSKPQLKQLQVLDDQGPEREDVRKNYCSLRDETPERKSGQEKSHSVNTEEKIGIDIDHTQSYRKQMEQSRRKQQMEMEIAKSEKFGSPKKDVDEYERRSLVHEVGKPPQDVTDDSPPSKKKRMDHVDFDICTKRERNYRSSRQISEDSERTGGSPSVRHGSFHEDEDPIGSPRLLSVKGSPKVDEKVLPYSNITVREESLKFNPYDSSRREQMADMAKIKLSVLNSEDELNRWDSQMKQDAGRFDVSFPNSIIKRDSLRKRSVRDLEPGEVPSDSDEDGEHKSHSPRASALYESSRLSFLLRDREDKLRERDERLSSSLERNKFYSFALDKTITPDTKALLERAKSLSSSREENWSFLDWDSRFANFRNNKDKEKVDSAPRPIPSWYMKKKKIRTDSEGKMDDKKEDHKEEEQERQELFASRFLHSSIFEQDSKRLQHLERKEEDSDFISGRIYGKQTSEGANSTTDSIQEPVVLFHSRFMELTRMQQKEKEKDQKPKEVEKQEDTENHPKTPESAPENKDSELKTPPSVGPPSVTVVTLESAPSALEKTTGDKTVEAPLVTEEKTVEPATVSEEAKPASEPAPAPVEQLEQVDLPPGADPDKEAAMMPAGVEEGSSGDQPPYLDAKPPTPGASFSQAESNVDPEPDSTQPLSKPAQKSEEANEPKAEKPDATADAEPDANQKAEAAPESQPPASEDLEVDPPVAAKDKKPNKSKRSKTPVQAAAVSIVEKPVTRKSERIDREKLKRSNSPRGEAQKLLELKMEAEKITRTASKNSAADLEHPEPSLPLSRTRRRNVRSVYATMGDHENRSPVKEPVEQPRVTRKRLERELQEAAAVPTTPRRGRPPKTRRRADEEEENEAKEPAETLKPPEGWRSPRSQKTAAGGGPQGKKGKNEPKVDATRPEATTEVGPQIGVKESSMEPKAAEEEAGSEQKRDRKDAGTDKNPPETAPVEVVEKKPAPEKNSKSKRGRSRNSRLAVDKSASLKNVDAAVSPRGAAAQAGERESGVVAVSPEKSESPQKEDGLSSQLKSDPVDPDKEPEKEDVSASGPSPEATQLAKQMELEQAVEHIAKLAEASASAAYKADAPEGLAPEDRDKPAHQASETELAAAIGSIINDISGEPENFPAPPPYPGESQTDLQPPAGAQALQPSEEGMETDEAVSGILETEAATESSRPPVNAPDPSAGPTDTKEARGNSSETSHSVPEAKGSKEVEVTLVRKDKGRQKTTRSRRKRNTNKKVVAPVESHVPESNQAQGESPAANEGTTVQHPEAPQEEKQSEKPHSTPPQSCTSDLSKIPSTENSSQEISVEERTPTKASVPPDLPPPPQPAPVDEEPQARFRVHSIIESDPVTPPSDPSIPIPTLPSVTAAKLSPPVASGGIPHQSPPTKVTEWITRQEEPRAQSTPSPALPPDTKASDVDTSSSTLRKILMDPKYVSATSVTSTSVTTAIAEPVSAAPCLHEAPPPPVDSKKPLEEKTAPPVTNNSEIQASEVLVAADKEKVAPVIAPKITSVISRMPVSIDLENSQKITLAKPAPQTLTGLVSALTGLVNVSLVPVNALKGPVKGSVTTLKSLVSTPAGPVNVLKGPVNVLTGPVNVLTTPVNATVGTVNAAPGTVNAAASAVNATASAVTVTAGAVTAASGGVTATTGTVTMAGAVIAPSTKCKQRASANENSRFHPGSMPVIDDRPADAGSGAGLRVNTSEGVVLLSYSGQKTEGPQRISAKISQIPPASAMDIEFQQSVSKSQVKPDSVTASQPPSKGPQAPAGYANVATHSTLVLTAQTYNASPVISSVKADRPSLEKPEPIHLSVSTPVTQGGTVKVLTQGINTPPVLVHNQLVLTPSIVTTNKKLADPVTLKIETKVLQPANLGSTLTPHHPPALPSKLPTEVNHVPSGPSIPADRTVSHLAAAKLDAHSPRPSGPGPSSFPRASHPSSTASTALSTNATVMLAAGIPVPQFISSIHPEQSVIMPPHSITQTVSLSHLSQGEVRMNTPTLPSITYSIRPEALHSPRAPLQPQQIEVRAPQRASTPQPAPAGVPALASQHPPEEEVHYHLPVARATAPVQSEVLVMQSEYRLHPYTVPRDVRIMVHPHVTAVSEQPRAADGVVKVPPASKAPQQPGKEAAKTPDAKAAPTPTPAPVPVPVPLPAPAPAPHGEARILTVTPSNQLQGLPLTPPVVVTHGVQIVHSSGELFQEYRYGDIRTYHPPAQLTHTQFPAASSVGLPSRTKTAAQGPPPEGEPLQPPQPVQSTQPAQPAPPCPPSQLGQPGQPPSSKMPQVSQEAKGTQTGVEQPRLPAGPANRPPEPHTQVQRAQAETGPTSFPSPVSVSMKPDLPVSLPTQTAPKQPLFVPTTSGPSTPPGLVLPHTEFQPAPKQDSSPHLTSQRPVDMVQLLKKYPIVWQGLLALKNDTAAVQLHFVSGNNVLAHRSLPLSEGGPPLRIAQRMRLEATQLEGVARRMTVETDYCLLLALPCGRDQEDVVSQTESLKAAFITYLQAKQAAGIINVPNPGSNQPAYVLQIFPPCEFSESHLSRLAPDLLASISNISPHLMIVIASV
UniProt Q07955, whole entry, looked up: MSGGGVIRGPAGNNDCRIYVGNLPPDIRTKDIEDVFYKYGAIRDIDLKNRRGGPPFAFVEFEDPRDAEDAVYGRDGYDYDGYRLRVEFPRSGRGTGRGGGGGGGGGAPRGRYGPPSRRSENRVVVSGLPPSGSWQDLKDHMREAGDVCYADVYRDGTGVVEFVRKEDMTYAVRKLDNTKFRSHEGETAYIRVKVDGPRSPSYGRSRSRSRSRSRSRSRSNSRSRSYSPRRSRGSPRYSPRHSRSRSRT
UniProt P51692: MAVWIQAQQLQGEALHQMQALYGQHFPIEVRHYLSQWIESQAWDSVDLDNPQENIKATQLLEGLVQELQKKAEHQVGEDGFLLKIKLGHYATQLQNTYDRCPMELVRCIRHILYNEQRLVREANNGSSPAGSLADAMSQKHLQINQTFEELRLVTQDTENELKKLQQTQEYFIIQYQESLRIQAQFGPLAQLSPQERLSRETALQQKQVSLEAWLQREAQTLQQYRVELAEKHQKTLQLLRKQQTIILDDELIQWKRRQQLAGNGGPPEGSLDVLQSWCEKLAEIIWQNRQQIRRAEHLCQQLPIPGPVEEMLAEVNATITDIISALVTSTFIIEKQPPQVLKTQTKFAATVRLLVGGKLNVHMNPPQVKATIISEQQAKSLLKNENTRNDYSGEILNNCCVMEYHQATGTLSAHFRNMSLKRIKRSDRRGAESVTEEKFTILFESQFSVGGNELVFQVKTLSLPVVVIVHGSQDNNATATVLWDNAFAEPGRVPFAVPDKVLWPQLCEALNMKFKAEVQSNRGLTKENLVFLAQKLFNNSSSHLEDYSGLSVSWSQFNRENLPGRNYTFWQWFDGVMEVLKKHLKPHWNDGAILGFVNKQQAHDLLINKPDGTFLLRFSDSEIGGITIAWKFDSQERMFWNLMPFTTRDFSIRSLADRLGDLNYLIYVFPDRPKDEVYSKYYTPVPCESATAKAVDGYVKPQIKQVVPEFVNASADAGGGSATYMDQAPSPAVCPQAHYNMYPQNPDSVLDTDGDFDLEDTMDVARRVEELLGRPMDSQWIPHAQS

These targets were tested with ClCC(=O)N[C@@H]1CCCc2ccccc12 (assay: log2 mean competition ratio of IA-DTB cysteine labelling (DMSO/compound) (log2 ratio); higher = stronger cysteine engagement by compound). Conditions: 50 µM; treatment time: 4 h; cell line lysate: HEK293T.
Method: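 IA-DTB competitive cysteine chemoproteomics in HEK293T RIPA lysate. Lysates were treated with compound 29 or 30 at 50 or 200 µM for 4 h, then IA-DTB (500 µM, 1 h), trypsin-digested, NeutrAvidin-enriched and analysed by diaPASEF. Competition ratio = intensity DMSO / intensity compound (n=4 treated, n=64 DMSO); binding: mean log2 CR ≥ 1 and p ≤ 0.05 plus QC filters. Target is the cysteine site.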

Target	log2 mean competition ratio
STXBP3 C557 (UniProt O00186)	-0.0859
SUGP2 C371 (UniProt Q8IX01)	0.481
SSH2 C1210 (UniProt Q76I76)	-0.0658
STK38 C9 (UniProt Q15208)	-0.203
SQSTM1 C113 (UniProt Q13501)	-0.00255
STXBP4 C411 (UniProt Q6ZWJ1)	0.237
SUGT1 C154 (UniProt Q9Y2Z0)	-0.0517
SUPT5H C429 (UniProt O00267)	-0.227
SPRY1 C305 (UniProt O43609)	0.0534
SYNE2 C553 (UniProt Q8WXH0)	0.00315
SPTAN1 C1314 (UniProt Q13813)	-0.0512
SRP68 C562 (UniProt Q9UHB9)	-0.136
SSB C245	-0.0523
SRM C123 (UniProt P19623)	-0.106
SRBD1 C912 (UniProt Q8N5C6)	-0.617
SPEN C1238 (UniProt Q96T58)	-0.287
SRSF1 C16 (UniProt Q07955)	-0.209
SYNE2 C568 (UniProt Q8WXH0)	-0.0499
STAT5B C101 (UniProt P51692)	0.313
STAG2 C711 (UniProt Q8N3U4)	0.341

Same assay, conditions: 200 µM; treatment time: 4 h; cell line lysate: HEK293T

Target	log2 mean competition ratio
STXBP3 C557 (UniProt O00186)	-0.117
SUGP2 C371 (UniProt Q8IX01)	-0.386
SSH2 C1210 (UniProt Q76I76)	-0.0375
STK38 C9 (UniProt Q15208)	0.374
SQSTM1 C113 (UniProt Q13501)	0.12
STXBP4 C411 (UniProt Q6ZWJ1)	0.271
SUGT1 C154 (UniProt Q9Y2Z0)	-0.0395
SUPT5H C429 (UniProt O00267)	-0.879
SPRY1 C305 (UniProt O43609)	0.224
SYNE2 C553 (UniProt Q8WXH0)	0.0836
SPTAN1 C1314 (UniProt Q13813)	0.17
SRP68 C562 (UniProt Q9UHB9)	-0.129
SSB C245	0.143
SRM C123 (UniProt P19623)	-0.131
SRBD1 C912 (UniProt Q8N5C6)	-0.452
SPEN C1238 (UniProt Q96T58)	0.0823
SRSF1 C16 (UniProt Q07955)	-0.0115
SYNE2 C568 (UniProt Q8WXH0)	0.33
STAT5B C101 (UniProt P51692)	0.0904
STAG2 C711 (UniProt Q8N3U4)	0.0226
